# Test results taken from the supplement of paper PMC7858590.
# ± gives the standard deviation of the averaged measurements. The full ranking holds about 3,800 compounds; the median of “cell shape (eccentricity) Z-score vs DMSO control” is about 1.1, and the lowest 2% start at about -4.7. Some of the results follow.
# Tested on: human monocyte-derived macrophages (M0)
# Assay: cell shape (eccentricity) Z-score vs DMSO control; higher = more elongated, M2-like morphology
# Settings: 20 µM; 24 h; macrophage state: M0 (M-CSF)
row,SMILES,cell shape (Z-score)
1,COc1ccc2[nH]cc(CCNCc3ccc(Br)cc3)c2c1,2.35
2,C[C@]12CC[C@H]3[C@@H](CCC4=CC(=O)CC[C@@]43C)[C@@H]1CC[C@H]2O,0.493
3,CC(=O)OC1CN2CCC1CC2 (centres undefined),1.37
4,CC(CCc1ccccc1)NC(C)C(O)c1ccc(O)cc1 (centres undefined),1.98
5,C[C@]12CCC(=O)C=C1CCC1C2CC[C@@]2(C)C1CC[C@@H]2O (some centres undefined),1.06
6,O=C1NC(=O)c2c1c1c3ccccc3[nH]c1c1[nH]c3ccccc3c21,15.5
7,CCC1/C=C/C=C/C[C@H](C)[C@@H](O)[C@](C)(O)C(=O)[C@@H](C)[C@H](O)[C@@H](C)C(=O)[C@H](C)[C@@H](O)[C@H](C)/C=C/C(=O)OC2[C@@H](C)C(CC1)OC1(CC[C@@H](C)C(C[C@H](C)O)O1)[C@@H]2C (some centres undefined),7.16
8,C[C@@H]([C@H](O)c1ccccc1)N(C)C,-2.36
9,CCCCC(CC)COC(=O)c1ccccc1C(=O)OCC(CC)CCCC (centres undefined),0.876 ± 0.39
10,COc1ccc2c(c1)[nH]c1c(C)nccc12,-5.5
11,CC1CC(C)C(=O)C(C(O)CC2CC(=O)NC(=O)C2)C1 (centres undefined),1.3
12,CC[C@@]1(O)C(=O)OCc2c1cc1n(c2=O)Cc2cc3ccccc3nc2-1,1.59
13,O=C1Nc2ccccc2C2(CCN(CCc3ccc(C(F)(F)F)cc3)CC2)O1,-0.107
14,C#CC1(O)CCC2C3CCC4=CC(=O)CCC4(C)C3CCC21C (centres undefined),0.708
15,O=P1(NCCCl)OCCCN1CCCl (centres undefined),2.31
16,O=C1CC[C@@]2(O)[C@H]3Cc4ccc(O)c5c4C2(CCN3CC2CC2)[C@H]1O5,0.776
17,CN1CCC(c2c[nH]c3ccc(O)cc23)CC1,1.42
18,Cc1sc2c(c1C)C(c1ccc(Cl)cc1)=N[C@@H](CC(=O)OC(C)(C)C)c1nnc(C)n1-2,7.09
19,COc1ccc2[nH]cc(CCN)c2c1,3.56
20,CN1C[C@H](C(=O)N[C@]2(C)O[C@@]3(O)[C@@H]4CCCN4C(=O)[C@H](Cc4ccccc4)N3C2=O)C[C@@H]2c3cccc4[nH]cc(c34)C[C@H]21,3.57

# Given bar-delimited: part of the list above
row | SMILES | cell shape (Z-score)
13 | O=C1Nc2ccccc2C2(CCN(CCc3ccc(C(F)(F)F)cc3)CC2)O1 | -0.107
14 | C#CC1(O)CCC2C3CCC4=CC(=O)CCC4(C)C3CCC21C (centres undefined) | 0.708

# (further entries)

row,SMILES,cell shape (Z-score)
1,c1ccc(C2(c3ccccc3)CC2C2=NCCN2)cc1 (centres undefined),-0.00518
2,COC1=CC(=O)O[C@@H](CCc2ccccc2)C1,1.68
3,CC(C)NCC(O)c1ccc(N)c(C#N)c1 (centres undefined),-0.285
4,C[C@H]1C[C@@H](O)[C@]2(O)[C@@]13CC(=O)OC[C@@]2(C)[C@](C)(O)C(=O)C3,1.22
5,NC(=O)c1cc([N+](=O)[O-])cc([N+](=O)[O-])c1,1.58
6,CC(C)CC1C(=O)N2CCCC2C2(O)OC(NC(=O)C3C=C4c5cccc6[nH]c(Br)c(c56)CC4N(C)C3)(C(C)C)C(=O)N12 (centres undefined),4.45
7,CC(=O)O[C@@H]1CC2C(C)(C)C(=O)C=C[C@]2(C)C2CC[C@]3(C)C(=CC(=O)O[C@H]3c3ccoc3)[C@@]21C (some centres undefined),-6.06
8,CN1[C@@H]2CC[C@H]1C[C@@H](OC(=O)N1Cc3ccccc3NC1=O)C2,2.68
9,C=CCN1CC[C@]23c4c5ccc(O)c4OC2C(=O)CC[C@@]3(O)[C@H]1C5 (some centres undefined),-1.34
10,Cc1cc(O)ccc1Cl,-0.646
11,CN1C2CCC1CC(OC(c1ccccc1)c1ccccc1N)C2 (centres undefined),13.7
12,COc1ccc2c3c4n(c2c1)[C@@H](C=C(C)C)OOC(C)(C)C[C@@H]4N1C(=O)[C@@H]2CCCN2C(=O)[C@]1(O)[C@H]3OCC=C(C)C,-1.26
13,COc1cc2c(cc1OC)-c1c(oc3c4c(ccc3c1=O)OC(C(C)C)C4)CO2 (centres undefined),4.81
14,CC1CCCCCC(=O)c2c(O)cc(O)cc2CC(=O)O1 (centres undefined),2.72
15,COc1ccc(CC2C(=O)OCC2Cc2ccc3c(c2)OCO3)cc1OC (centres undefined),1.72
16,c1cc2c(c(N3CCNCC3)c1)OCCO2,7.56
17,C#CCN(C)C(C)Cc1ccccc1 (centres undefined),-2.31
18,CO[C@H]1[C@H](O)[C@H](O[C@H]2CC[C@]3(C)C4CC[C@]5(C)[C@H](C6=CC(=O)OC6)CC[C@]5(O)C4CC[C@@H]3C2)O[C@@H](C)[C@@H]1O (some centres undefined),1.07
19,CC(C)=CCc1c(O)cc2c(c1O)C(=O)CC(c1ccc(O)cc1)O2 (centres undefined),1.18 ± 0.047
20,Cc1ccc2c(c1)Cc1c(C(=O)NC3CCCCC3)nn(-c3ccc(Cl)cc3Cl)c1-2,2.43

row,SMILES,cell shape (Z-score)
1,COc1ccc(CN2CCNCC2)c(OC)c1OC,2.48
2,CC(C)CC1C(=O)N2CCC[C@H]2C2(O)O[C@](NC(=O)C3C=C4c5cccc6[nH]c(Br)c(c56)C[C@H]4N(C)C3)(C(C)C)C(=O)N12 (some centres undefined),4.71
3,CC(C)N(CCC(C(N)=O)(c1ccccc1)c1ccccn1)C(C)C (centres undefined),2.88
4,CC(C)=CCCC1(C)C=Cc2c(O)c3c(c(CC=C(C)C)c2O1)OC12C(=CC4CC1C(C)(C)OC2(C/C=C(/C)C(=O)O)C4=O)C3=O (centres undefined),-3.65
5,CN1C2CCC1CC(OC(=O)c1cc(Cl)cc(Cl)c1)C2 (centres undefined),0.939
6,CCCN(CC=CI)C1CCc2ccc(O)cc2C1 (centres undefined),4.9
7,CN1CCc2cc3c(cc2[C@H]1C1OC(=O)c2c1ccc1c2OCO1)OCO3 (some centres undefined),0.327
8,CC1=CC(=O)c2c(O)cccc2C1=O,-4.68
9,CC(C)[C@]1(O)[C@@H](OC(=O)c2ccc[nH]2)[C@@]2(O)[C@@]3(C)C[C@]4(O)O[C@@]5([C@H](O)[C@@H](C)CC[C@]35O)[C@@]2(O)[C@]41C,0.223
10,COC(=O)[C@@]12C(=O)C(C)C(=O)[C@]1(C)C(C)=C[C@H]1[C@]3(C=O)CC[C@H](OC(C)=O)C(C)(C)[C@H]3CC[C@@]12C (some centres undefined),0.645
11,O=C(O)CCCOc1ccc(Cl)cc1Cl,3.24
12,CCN(CC)CCOC(=O)C(C)(c1ccccc1)c1ccccc1,1.67
13,COc1cc2c(c(OC)c1OC)-c1ccc(OC)c(=O)cc1C(NC(C)=O)CC2 (centres undefined),8.73
14,CN(C)CCN(C)CCc1ccc(Cl)c(Cl)c1,2.25
15,C[As](C)SC[C@H](NC(=O)CC[C@H](N)C(=O)O)C(=O)NCC(=O)O,0.0955
16,COC1C(O)CC(OC2C(O)CC(OC3C(O)CC(OC4CCC5(C)C(CCC6[C@@H]5CC(O)C5(C)C(C7=CC(=O)OC7)CCC65O)C4)OC3C)OC2C)OC1C (some centres undefined),-1.9
17,CCOC(=O)c1ncn2c1CN(C)C(=O)c1cc(N=[N+]=[N-])ccc1-2,2.52
18,CN1CCc2cc(Cl)c(O)cc2[C@H]2c3ccccc3CC[C@@H]21,0.696
19,CC12CC[C@H]3C(CCC4(O)CC(O)CCC34O)C1(O)CCC2C1=CC(=O)OC1 (some centres undefined),1.22
